Laboratory results published in article PMC3921129.
No constants are given. Whether binding was seen depends on the method and setting. Binding seen in cells or lysates may run through a third protein. Some results given as binding are weak or reduced against the parent protein; the word gives no strength. Where a sequence is shown, tags or fusion partners need not be part of it.

T1: GFP-Dok1 (human) (UniProt Q99704)
T1 sequence: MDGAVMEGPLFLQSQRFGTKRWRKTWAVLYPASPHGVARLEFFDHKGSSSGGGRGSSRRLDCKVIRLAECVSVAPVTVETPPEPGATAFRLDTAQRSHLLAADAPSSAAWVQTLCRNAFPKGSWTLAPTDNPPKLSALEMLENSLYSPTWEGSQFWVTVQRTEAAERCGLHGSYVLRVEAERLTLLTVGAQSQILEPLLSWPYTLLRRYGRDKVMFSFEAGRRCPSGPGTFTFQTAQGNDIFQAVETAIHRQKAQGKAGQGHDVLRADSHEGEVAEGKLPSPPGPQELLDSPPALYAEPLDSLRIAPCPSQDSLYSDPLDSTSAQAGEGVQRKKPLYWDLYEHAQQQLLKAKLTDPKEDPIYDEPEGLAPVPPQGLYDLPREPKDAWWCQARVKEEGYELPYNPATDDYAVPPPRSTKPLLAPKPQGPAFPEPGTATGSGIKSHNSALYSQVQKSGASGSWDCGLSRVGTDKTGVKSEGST


Tests used:
[1] = biological target: T1, GFP-Dok1 (human); experiment: co-IP; HEK 293 cells co-transfected with GFP-Dok1 and BRK variants; lysate (20 mM Tris pH 7.5, 1% triton, 150 mM NaCl, 0.3 mM orthovanadate) immunoprecipitated with anti-Dok1, Protein A beads, 4°C; blotted with anti-BRK
[2] = biological target: Myc-BRK-WT (human) (UniProt Q13882); experiment: co-IP; reciprocal: HEK 293 cells co-transfected with GFP-Dok1 and BRK-WT or BRK-YF; lysate immunoprecipitated with anti-BRK, Protein A beads, 4°C; blotted with anti-Dok1
[3] = biological target: Myc-BRK-YF (human) (UniProt Q13882); experiment: as above
[4] = biological target: GST-BRK-SH3 (human) (UniProt Q13882); experiment: pull-down; GST-BRK-SH3 or GST-BRK-SH2 immobilized on glutathione Sepharose beads, incubated with lysates of HEK 293 cells transfected with GFP-Dok1 WT or Y362F alone or cotransfected with BRK-Y447F; blotted with anti-Dok1; only the target purified

Molecule	binding [1]	binding [4]	further results
Myc-BRK-WT (from UniProt Q13882 1-451) (enzyme)	binds	–	–
BRK-Y342A (from UniProt Q13882 1-451) (enzyme)	binds	–	–
Myc-BRK-YF (from UniProt Q13882 1-451) (enzyme)	binds	–	–
GFP-Dok1 (protein, UniProt Q99704 1-481) MDGAVMEGPLFLQSQRFGTKRWRKTWAVLYPASPHGVARLEFFDHKGSSSGGGRGSSRRLDCKVIRLAECVSVAPVTVETPPEPGATAFRLDTAQRSHLLAADAPSSAAWVQTLCRNAFPKGSWTLAPTDNPPKLSALEMLENSLYSPTWEGSQFWVTVQRTEAAERCGLHGSYVLRVEAERLTLLTVGAQSQILEPLLSWPYTLLRRYGRDKVMFSFEAGRRCPSGPGTFTFQTAQGNDIFQAVETAIHRQKAQGKAGQGHDVLRADSHEGEVAEGKLPSPPGPQELLDSPPALYAEPLDSLRIAPCPSQDSLYSDPLDSTSAQAGEGVQRKKPLYWDLYEHAQQQLLKAKLTDPKEDPIYDEPEGLAPVPPQGLYDLPREPKDAWWCQARVKEEGYELPYNPATDDYAVPPPRSTKPLLAPKPQGPAFPEPGTATGSGIKSHNSALYSQVQKSGASGSWDCGLSRVGTDKTGVKSEGST	–	binds	binding [2]: binds; binding [3]: binds
GFP-Dok1-Y362F (protein, UniProt Q99704 1-481) MDGAVMEGPLFLQSQRFGTKRWRKTWAVLYPASPHGVARLEFFDHKGSSSGGGRGSSRRLDCKVIRLAECVSVAPVTVETPPEPGATAFRLDTAQRSHLLAADAPSSAAWVQTLCRNAFPKGSWTLAPTDNPPKLSALEMLENSLYSPTWEGSQFWVTVQRTEAAERCGLHGSYVLRVEAERLTLLTVGAQSQILEPLLSWPYTLLRRYGRDKVMFSFEAGRRCPSGPGTFTFQTAQGNDIFQAVETAIHRQKAQGKAGQGHDVLRADSHEGEVAEGKLPSPPGPQELLDSPPALYAEPLDSLRIAPCPSQDSLYSDPLDSTSAQAGEGVQRKKPLYWDLYEHAQQQLLKAKLTDPKEDPIFDEPEGLAPVPPQGLYDLPREPKDAWWCQARVKEEGYELPYNPATDDYAVPPPRSTKPLLAPKPQGPAFPEPGTATGSGIKSHNSALYSQVQKSGASGSWDCGLSRVGTDKTGVKSEGST	–	binds	–
GFP-Dok1 WT from cells cotransfected with BRK-Y447F (tyrosine-phosphorylated Dok1) (protein, UniProt Q99704 1-481, tyrosine-phosphorylated by co-expressed BRK-Y447F, predominantly on Y362) MDGAVMEGPLFLQSQRFGTKRWRKTWAVLYPASPHGVARLEFFDHKGSSSGGGRGSSRRLDCKVIRLAECVSVAPVTVETPPEPGATAFRLDTAQRSHLLAADAPSSAAWVQTLCRNAFPKGSWTLAPTDNPPKLSALEMLENSLYSPTWEGSQFWVTVQRTEAAERCGLHGSYVLRVEAERLTLLTVGAQSQILEPLLSWPYTLLRRYGRDKVMFSFEAGRRCPSGPGTFTFQTAQGNDIFQAVETAIHRQKAQGKAGQGHDVLRADSHEGEVAEGKLPSPPGPQELLDSPPALYAEPLDSLRIAPCPSQDSLYSDPLDSTSAQAGEGVQRKKPLYWDLYEHAQQQLLKAKLTDPKEDPIYDEPEGLAPVPPQGLYDLPREPKDAWWCQARVKEEGYELPYNPATDDYAVPPPRSTKPLLAPKPQGPAFPEPGTATGSGIKSHNSALYSQVQKSGASGSWDCGLSRVGTDKTGVKSEGST	–	binds	–
